The values that follow come from the supplement of paper PMC10849652.

Amino acid sequences for entries named in this document (tags omitted). A change or cut given only in a name is not applied to a line headed by its entry.
UniProt Q9Y294, whole entry, looked up: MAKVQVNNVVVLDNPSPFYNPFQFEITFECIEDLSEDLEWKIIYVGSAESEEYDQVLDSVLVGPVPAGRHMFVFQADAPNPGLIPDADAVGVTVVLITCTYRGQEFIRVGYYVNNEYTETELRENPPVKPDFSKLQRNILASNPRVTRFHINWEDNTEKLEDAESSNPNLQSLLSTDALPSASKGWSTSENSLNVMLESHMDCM
UniProt Q93084: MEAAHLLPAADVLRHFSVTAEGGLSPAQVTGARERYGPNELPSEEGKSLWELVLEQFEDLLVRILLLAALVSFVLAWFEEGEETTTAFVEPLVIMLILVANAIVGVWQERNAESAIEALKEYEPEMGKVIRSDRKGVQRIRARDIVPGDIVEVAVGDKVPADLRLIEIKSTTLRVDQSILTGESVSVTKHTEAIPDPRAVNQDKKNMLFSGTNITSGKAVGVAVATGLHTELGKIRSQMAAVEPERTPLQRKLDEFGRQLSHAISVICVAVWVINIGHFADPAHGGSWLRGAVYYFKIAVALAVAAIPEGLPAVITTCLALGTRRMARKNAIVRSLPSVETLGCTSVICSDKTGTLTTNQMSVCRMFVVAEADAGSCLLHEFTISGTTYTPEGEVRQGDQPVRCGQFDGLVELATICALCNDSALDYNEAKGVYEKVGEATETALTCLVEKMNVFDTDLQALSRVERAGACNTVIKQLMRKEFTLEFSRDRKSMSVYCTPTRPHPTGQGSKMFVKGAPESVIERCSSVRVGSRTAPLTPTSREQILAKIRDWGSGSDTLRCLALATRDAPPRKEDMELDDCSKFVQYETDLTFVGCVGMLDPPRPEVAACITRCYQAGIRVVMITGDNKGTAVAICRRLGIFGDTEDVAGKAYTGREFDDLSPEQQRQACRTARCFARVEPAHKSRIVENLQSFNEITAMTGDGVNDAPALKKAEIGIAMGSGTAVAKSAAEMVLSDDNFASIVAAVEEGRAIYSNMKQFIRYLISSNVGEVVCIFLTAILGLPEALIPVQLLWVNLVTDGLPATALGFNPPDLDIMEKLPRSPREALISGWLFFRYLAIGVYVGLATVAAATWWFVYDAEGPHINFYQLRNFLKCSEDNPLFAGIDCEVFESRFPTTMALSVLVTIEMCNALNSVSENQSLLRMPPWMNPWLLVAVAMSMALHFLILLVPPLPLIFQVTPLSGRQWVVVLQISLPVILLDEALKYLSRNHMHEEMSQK
UniProt Q8NHH9: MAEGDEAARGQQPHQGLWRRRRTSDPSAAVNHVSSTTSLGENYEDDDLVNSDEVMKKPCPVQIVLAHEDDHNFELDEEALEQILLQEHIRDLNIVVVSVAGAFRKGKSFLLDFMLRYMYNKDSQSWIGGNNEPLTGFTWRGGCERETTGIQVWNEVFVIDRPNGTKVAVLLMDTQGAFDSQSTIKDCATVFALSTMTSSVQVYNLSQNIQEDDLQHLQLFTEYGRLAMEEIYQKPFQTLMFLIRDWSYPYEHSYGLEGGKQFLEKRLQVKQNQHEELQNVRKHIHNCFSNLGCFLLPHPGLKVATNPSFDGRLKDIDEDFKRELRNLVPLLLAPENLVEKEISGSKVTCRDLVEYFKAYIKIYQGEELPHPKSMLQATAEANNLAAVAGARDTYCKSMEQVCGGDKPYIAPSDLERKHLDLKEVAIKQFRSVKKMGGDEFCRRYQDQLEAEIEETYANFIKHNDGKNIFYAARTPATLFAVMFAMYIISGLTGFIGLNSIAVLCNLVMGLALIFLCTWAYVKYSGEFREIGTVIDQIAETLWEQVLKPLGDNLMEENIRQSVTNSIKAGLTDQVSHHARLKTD
UniProt Q9H1I8: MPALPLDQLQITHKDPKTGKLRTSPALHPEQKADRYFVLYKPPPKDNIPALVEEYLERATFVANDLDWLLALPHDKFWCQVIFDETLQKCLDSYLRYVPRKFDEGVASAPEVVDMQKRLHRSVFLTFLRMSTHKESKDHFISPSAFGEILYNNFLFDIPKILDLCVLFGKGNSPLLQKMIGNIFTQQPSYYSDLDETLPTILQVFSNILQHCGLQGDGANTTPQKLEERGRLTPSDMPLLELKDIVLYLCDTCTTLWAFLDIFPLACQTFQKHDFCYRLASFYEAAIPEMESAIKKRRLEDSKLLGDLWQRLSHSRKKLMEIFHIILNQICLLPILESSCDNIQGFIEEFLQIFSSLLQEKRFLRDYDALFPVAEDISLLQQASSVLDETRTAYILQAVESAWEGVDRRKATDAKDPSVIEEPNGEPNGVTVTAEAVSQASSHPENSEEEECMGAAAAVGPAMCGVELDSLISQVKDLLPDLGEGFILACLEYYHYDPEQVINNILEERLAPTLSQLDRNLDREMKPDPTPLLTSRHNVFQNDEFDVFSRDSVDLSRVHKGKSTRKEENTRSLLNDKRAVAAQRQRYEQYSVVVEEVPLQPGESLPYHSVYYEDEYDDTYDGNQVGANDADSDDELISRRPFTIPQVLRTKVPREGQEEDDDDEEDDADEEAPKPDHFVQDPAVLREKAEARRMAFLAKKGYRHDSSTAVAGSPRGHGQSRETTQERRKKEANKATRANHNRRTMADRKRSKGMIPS
UniProt P30049: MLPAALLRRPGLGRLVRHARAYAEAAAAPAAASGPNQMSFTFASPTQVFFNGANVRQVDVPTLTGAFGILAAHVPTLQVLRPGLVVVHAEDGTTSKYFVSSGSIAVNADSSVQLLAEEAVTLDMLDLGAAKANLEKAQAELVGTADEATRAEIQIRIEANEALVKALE
UniProt Q2TAZ0: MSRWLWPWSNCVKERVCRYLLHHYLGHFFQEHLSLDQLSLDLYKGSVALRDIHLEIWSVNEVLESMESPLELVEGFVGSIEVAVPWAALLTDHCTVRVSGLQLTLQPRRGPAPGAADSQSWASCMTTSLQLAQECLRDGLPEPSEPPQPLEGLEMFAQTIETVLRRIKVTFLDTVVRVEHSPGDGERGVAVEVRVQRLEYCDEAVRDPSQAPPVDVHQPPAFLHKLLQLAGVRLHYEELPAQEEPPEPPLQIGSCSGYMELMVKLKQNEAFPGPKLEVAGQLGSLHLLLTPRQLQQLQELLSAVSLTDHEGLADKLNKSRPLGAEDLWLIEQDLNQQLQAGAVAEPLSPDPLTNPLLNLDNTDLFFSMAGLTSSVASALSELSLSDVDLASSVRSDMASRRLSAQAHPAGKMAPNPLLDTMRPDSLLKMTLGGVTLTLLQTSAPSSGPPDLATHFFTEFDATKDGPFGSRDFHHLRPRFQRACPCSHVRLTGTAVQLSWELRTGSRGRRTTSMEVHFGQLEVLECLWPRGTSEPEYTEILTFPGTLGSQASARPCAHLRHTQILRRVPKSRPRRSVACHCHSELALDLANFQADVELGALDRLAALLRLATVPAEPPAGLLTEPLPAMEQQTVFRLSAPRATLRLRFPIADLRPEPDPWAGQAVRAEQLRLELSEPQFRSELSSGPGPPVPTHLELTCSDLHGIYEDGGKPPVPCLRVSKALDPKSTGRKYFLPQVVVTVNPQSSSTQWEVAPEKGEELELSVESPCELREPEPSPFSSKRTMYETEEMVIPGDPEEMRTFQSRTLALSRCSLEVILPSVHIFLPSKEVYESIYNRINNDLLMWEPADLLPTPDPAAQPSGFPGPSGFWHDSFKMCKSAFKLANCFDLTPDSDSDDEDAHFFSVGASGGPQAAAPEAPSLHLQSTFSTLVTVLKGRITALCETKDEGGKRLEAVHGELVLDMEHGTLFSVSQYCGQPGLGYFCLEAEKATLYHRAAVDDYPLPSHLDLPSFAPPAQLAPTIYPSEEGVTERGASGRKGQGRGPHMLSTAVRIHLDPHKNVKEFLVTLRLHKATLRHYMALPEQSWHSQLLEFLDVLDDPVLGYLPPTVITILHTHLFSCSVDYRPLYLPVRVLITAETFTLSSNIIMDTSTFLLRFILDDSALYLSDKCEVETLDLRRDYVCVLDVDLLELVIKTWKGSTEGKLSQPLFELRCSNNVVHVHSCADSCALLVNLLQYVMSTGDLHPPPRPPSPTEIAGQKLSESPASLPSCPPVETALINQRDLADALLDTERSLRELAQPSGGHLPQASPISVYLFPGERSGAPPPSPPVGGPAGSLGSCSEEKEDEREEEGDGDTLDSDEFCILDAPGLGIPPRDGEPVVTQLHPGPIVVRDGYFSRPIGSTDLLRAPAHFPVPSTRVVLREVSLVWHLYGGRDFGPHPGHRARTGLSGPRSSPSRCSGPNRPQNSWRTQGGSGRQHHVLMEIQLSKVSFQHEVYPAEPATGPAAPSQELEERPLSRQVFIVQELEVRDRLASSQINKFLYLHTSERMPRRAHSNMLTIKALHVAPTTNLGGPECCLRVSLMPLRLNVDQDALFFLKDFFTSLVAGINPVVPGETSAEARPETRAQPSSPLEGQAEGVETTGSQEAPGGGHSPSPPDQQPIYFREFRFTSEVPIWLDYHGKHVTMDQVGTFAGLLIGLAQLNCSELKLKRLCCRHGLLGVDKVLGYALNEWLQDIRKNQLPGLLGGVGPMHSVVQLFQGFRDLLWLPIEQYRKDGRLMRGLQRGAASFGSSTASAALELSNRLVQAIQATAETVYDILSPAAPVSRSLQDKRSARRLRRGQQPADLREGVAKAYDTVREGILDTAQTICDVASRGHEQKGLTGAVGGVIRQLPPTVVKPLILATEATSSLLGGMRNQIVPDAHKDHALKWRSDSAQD
UniProt Q9UII2: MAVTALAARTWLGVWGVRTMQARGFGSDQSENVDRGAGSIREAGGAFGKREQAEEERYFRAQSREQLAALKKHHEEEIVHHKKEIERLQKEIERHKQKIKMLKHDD
UniProt P15313, whole entry, looked up: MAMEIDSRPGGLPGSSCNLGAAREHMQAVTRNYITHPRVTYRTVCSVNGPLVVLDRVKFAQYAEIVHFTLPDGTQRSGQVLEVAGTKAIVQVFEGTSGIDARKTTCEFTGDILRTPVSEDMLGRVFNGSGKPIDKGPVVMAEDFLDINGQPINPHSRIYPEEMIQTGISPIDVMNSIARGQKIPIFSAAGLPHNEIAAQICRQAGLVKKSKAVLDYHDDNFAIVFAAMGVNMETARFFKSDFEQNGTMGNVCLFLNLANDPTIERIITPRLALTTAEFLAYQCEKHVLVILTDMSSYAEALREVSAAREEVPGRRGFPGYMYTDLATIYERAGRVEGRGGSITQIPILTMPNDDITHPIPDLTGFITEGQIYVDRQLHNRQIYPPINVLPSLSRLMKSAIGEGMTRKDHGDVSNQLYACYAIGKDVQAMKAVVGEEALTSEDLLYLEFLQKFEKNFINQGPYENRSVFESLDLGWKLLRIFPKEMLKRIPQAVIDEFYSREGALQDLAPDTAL
UniProt P56378: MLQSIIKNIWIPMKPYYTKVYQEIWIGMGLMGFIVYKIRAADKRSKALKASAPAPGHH
UniProt P24539: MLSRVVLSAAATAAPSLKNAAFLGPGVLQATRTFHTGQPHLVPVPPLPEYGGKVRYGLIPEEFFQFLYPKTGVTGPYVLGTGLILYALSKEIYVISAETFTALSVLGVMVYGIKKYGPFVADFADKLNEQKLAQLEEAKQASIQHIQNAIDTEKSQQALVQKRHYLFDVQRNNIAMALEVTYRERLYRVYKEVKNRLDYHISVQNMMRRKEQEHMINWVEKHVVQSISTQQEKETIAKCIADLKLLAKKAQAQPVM
UniProt Q9Y679: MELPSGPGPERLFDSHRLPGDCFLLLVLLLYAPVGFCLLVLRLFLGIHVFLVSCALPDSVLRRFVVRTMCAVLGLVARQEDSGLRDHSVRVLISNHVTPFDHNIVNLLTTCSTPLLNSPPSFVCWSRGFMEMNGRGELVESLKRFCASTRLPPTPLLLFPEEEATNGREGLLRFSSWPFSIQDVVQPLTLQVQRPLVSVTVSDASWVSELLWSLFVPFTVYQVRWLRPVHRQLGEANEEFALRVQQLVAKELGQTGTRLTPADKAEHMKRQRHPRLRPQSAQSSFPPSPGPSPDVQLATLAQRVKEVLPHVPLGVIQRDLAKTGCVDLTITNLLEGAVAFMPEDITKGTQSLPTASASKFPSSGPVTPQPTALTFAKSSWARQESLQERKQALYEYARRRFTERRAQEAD
UniProt Q9UBB4: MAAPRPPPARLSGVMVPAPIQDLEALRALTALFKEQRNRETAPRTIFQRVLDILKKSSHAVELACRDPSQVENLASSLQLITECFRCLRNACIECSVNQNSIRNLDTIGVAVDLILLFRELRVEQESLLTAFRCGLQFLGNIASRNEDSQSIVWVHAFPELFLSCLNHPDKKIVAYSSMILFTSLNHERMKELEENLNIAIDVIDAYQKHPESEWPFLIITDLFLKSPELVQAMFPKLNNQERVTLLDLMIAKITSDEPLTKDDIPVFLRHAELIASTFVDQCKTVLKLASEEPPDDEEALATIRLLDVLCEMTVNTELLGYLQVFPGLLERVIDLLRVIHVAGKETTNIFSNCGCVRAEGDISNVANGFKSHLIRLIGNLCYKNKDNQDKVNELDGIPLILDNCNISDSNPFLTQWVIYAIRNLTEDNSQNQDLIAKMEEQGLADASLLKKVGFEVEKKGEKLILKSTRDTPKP

This is one part of the list.

Compound in the assay: Cn1cncc1[C@@](N)(c1ccc(Cl)cc1)c1ccc2c(c1)c(-c1cccc(Cl)c1)cc(=O)n2C [tipifarnib]
The experiment in a line: log2 fold change, soluble protein after heating vs DMSO (PISA); higher = thermal stabilisation; K562 lysate, 10 uM; active = over 0.2 and 3.5 SD of the protein, either way, in both replicates (recomputed). The method in brief: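 To prepare the extract, K562 pellets were dounce-homogenised in PBS pH 7.4 with 1 mM MgCl2, giving crude material at 1 mg/mL protein. This was treated with 10 μM compound for 30 min, then heated in aliquots for 3 min over 48°C-58°C before pooling and addition of NP-40 to 0.5% at 4°C. Centrifugation at 21,000xg for 90 min left soluble protein in the supernatant, which TMTpro 16plex LC-MS/MS quantified with equalised channel sums. Results are log-two fold changes in thermal stability compared with solvent controls, from duplicates.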
As for ASF1A (UniProt Q9Y294), the log2 fold change was inactive: 0.008.
ATP2B1 isoform 1 (UniProt P20020): the log2 fold change is inactive: -0.008.
As for ASF1B (UniProt Q9NVP2), the figure is inactive: -0.053; as for ATP2A3 isoform 2 (UniProt Q93084), inactive: 0.049.
For ATL2 (UniProt Q8NHH9), the log2 fold change was inactive: -0.018.
Take ASCC2 (UniProt Q9H1I8): the log2 fold change was inactive: 0.082.
With ASNS (UniProt P08243), the log2 fold change is inactive: 0.017.
For the target ATP9B (UniProt O43861), the log2 fold change was inactive: -0.08.
As for ASS1 (UniProt P00966), the figure is inactive: 0.032; as for ATP5F1D (UniProt P30049), inactive: -0.059; as for ATG4B (UniProt Q9Y4P1), inactive: -0.019.
As for ATG2A isoform 3 (UniProt Q2TAZ0), the figure is inactive: -0.113.
As to ATP5IF1 (UniProt Q9UII2), the log2 fold change is inactive: -0.015.
ATP6V1B1 (UniProt P15313): the log2 fold change is inactive: -0.036.
In the case of ATP6V1A (UniProt P38606), the log2 fold change was inactive: 0.012.
For ATE1 isoform 2 (UniProt O95260), the log2 fold change was inactive: 0.025.
Regarding ATP5MF-PTCD1 (UniProt G3V325), the log2 fold change is inactive: -0.026.
Turning to ATP5MPL (UniProt P56378), the log2 fold change is inactive: 0.037.
To ATP5PB (UniProt P24539) belongs inactive: 0.026.
Consider AUP1 (UniProt Q9Y679), for which the log2 fold change was inactive: 0.048.
To ATXN10 (UniProt Q9UBB4) belongs inactive: 0.016; to ASH2L (UniProt Q9UBL3), inactive: 0.016.
